In the supplement of paper PMC10470496 one finds growth data, which are given here for 4 molecules.

Each structure is given as a SMILES string. Where a name gives a salt, the structure may show the parent alone. This is one part of the list. Many values rest on one well or one pass, so single values are uncertain.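 The three strains are clinical Candida auris isolates from the CDC resistance isolate bank, from clades III, IV and I, grown in RPMI-1640 at 35°C. Growth is background-corrected OD600 relative to vehicle-only wells on the same plate; a hit meant over 50% inhibition in at least two strains plus a plate-corrected B-score above 0.1.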

Some test systems named below: C. auris AR-384; C. auris AR-386; C. auris AR-387.
Holding throughout (assay): growth relative to vehicle control (OD600 ratio) (fraction); higher = less inhibition
Common to all, as to conditions: 24 h

Regarding `Cc1nccn1CC1CCc2c(c3ccccc3n2C)C1=O` (centres undefined) [Ondansetron Hydrochloride Dihydrate], the growth is 1.22 in the assay with C. auris AR-384 (1 µM); 1.37 in the assay with C. auris AR-384 (10 µM); 1.37 in the assay on C. auris AR-386 (1 µM); 1.29 in the assay with C. auris AR-386 (10 µM); 1.24 in the assay with C. auris AR-387 (1 µM); 1.22 with C. auris AR-387 (10 µM).
On to `N[C@@H](Cc1cc(I)c(Oc2ccc(O)c(I)c2)c(I)c1)C(=O)O` [Liothyronine Sodium], for which the growth in the assay with C. auris AR-384 (1 µM) was 1.19; in the assay with C. auris AR-384 (10 µM), 1.28; in the assay on C. auris AR-386 (1 µM), 1.37; with C. auris AR-386 (10 µM), 1.03; in the assay on C. auris AR-387 (1 µM) it was 1.47; in the assay on C. auris AR-387 (10 µM), 1.17.
As for `CCOC(=O)[N-]c1c[n+](N2CCOCC2)no1` [Molsidomine], the growth is 0.71 with C. auris AR-384 (1 µM); 0.83 in the assay with C. auris AR-384 (10 µM); 0.9 with C. auris AR-386 (1 µM); 0.48 with C. auris AR-386 (10 µM); 0.88 in the assay on C. auris AR-387 (1 µM); 0.78 in the assay with C. auris AR-387 (10 µM).
In the case of `Cc1cc(=O)[nH]c(=S)[nH]1` [Methylthiouracil], the growth with C. auris AR-384 (1 µM) was 1.05; in the assay with C. auris AR-384 (10 µM) it was 0.74; in the assay on C. auris AR-386 (1 µM) it was 0.97; in the assay on C. auris AR-386 (10 µM) it was 0.97; in the assay with C. auris AR-387 (1 µM) it was 0.85; with C. auris AR-387 (10 µM) it was 0.92.
